Primary screen of a compound library

The filed quantity is “Percent Effect” (%). The controls that fix the scale are not given in the record; negative values are as filed. This is an unselected part of the compounds tested.

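Assay of Toxoplasma gondii numbers, read through their beta-galactosidase reporter with a colour substrate. Concentration: 50 µM. The record gives no direction; the compounds picked for IC50 retests had high values, so higher reads as fewer parasites. About 18,000 compounds were tested under these conditions; 0.94% (about 170) showed 50% or more at least once.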

| Compound | Percent Effect |
|---|---|
| `CCCNC(=O)C1CN(C(C)=O)c2ccccc2O1` (centres unmarked) | -4.423% |
| `CC(C)(C)OC(=O)N1CC2(CCC(CN)O2)C1` (centres unmarked) | 0.1168% |
| `CCN(C)S(=O)(=O)Nc1cc(Cl)c(OC)c(Cl)c1` | -6.543% |
| `COc1cccn(CC(=O)N2CCN(C)CC2)c1=O` | -9.062% |
| `CC(C)C(C)NC(=O)CCNS(=O)(=O)c1cccnc1` (centres unmarked) | 19% |
| `COc1ccc(C(=O)Nc2cc(Br)c(=O)n(C)c2)cc1` | 1.144% |
| `CN1CCC(Nc2ccc(Br)cn2)CC1` | 9.125% |
| `CN(C)c1ccc(C(=O)N2CCC(O)CC2)cc1` | -0.1195% |
| `CC(C)(C)CCC(N)c1ncc[nH]1` (centres unmarked) | -7.886% |
| `COc1ccc2cc(C(=O)N(C)C)c(C)nc2c1` | -8.962% |
| `Cc1ccsc1C(=O)Nc1cnn(CC(N)=O)c1` | -6.244% |
| `CC(C)COc1ccccc1NC(C)C(=O)NC(N)=O` (centres unmarked) | -8.548% |
| `CS(=O)(=O)NCCc1csc(N2CCCC2)n1` | -4.184% |
| `CN(Cc1ccc(O)cc1)C(=O)c1cc(Cl)c[nH]1` | 2.65% |
| `CN(CCNS(C)(=O)=O)CCSc1ccccc1` | 49.42% |
| `CSCC(=O)N(CCC#N)Cc1cccnc1` | -6.679% |
| `c1ccc(O[C@H]2CCNC2)nc1` | -51.74% |
| `Cn1ncnc1CNC(=O)NCc1cc(F)cc(F)c1` | 1.387% |
| `OC(Cc1ccccc1)C1CCNCC1` (centres unmarked) | 12.47% |
| `Cc1ccc(CNCc2cncs2)c(N2CCCC2)n1` | -8.244% |
| `Cc1ccc(C)c(-n2c(C)cc(=O)[nH]c2=O)c1` | 0.4925% |
| `CNC(=O)NC(=O)CSc1ccccn1` | -5.1% |
| `CCCN1CCN(Cc2nccn2C)CC1` | 5.907% |
| `Cc1ccc(C)c(NC(=O)CN2CCC(O)CC2)c1` | -4.783% |
| `C=C(Cl)CNC(=O)CNC(=O)Cc1ccc(O)cc1` | 0.3789% |
| `O=S(=O)(c1ccco1)N1CCOCc2ccccc21` | 3.541% |
| `O=S(=O)(c1cc2ccccc2o1)N1CCOCC1` | -1.422% |
| `NC(=O)NC(=O)CCN1CCCc2c(Br)cccc2C1` | -13.26% |
| `Cc1cc(C(=O)NCCCN2CCN(C)CC2)on1` | -4.555% |
| `CC(=O)c1ccc(C(=O)Nc2nnc(C)s2)s1` | -18.34% |
| `COCc1nc(C)c(CNC(=O)Cc2ccccn2)s1` | -0.6168% |
| `CC(C)N1CCC(NC(=O)C2=NN(C)C(=O)CC2)CC1` | -26.21% |
| `CC(C)(C)CC(CO)NC(=O)c1ccon1` (centres unmarked) | 17.32% |
| `COCC(=O)NC(C)Cc1ccco1` (centres unmarked) | -11.29% |
| `Cn1ncc(Cl)c1C(=O)Nc1ccncc1` | -8.66% |
| `CS(=O)(=O)Nc1ccc2[nH]c(=O)oc2c1` | -6.708% |
| `COCCN(CC(=O)N(C)C)c1ccnc(C)n1` | 0.4203% |
| `CCN(CC)C(=O)c1cc(N(C)S(C)(=O)=O)ccc1Cl` | 6.952% |
| `Cc1cc(CS(=O)(=O)C(C)C(=O)NC2CC2)on1` (centres unmarked) | -15.19% |
| `CSc1ccc(NC(=O)CNC(=O)OC(C)(C)C)cn1` | -24.54% |
| `CC(C)n1ccnc1CN(C)CC1COCCO1` (centres unmarked) | 15.81% |
| `O=C(CC1(O)CCCCC1)NCCNC(=O)C1CC1` | -5.979% |
| `CC(C)(C)OC(=O)N1CCN2C(=N)NCC2C1` (centres unmarked) | -7.135% |
| `CC(C)(C#N)C(=O)N1CCN(CC(O)C(C)(C)C)CC1` (centres unmarked) | 32.09% |
| `NC(=O)C(Sc1nncs1)c1ccc(Br)cc1` (centres unmarked) | 5.967% |
| `CN(Cc1ccco1)C(=O)CN1CCc2sccc2C1` | 10.38% |
| `NCc1ccc(Br)o1` | 33.39% |
| `Cc1cnccc1CN(C)C(=O)c1ccc(F)cc1O` | -8.319% |
| `CC(NC(=O)CCNS(C)(=O)=O)c1ccc(F)c(F)c1` (centres unmarked) | -2.044% |
| `CC(C)CC(NC(CO)CO)c1cccs1` (centres unmarked) | -1.924% |
| `CC(CC#N)N(C)C(=O)c1ccc(N2CCCC2)nc1` (centres unmarked) | -1.873% |
| `NC(=O)C(SC1CCOCC1)c1ccccc1` (centres unmarked) | 8.402% |
| `COCCNCCNC(=O)c1cnn(C)c1` | -9.302% |
| `Cc1[nH]c(=O)[nH]c(=O)c1CCC(=O)Nc1nccs1` | 14.22% |
| `Cc1ccnc(NCc2cccc(S(N)(=O)=O)c2)c1` | -10.43% |
| `COC(=O)CSc1nc2ncc(Br)cc2[nH]1` | 0.2967% |
| `CN(C)c1ccc(CC(=O)NCCn2cncn2)cc1` | -18.4% |
| `COc1ccc(C2CCCN2C(C)=O)cc1OC` (centres unmarked) | -0.243% |
| `CS(=O)(=O)NCCc1nc2c(s1)CCCC2` | -1.732% |
| `CC(=O)NCc1nc2ccccc2n1CC(N)=O` | -7.074% |
| `CC(C)OCCS(=O)(=O)c1cccs1` | -4.251% |
| `CCC(=O)Nc1cc(C(N)=O)ccc1Cl` | -5.658% |
| `C1CN(CC2CCOC2)CCN1` (centres unmarked) | 21.89% |
| `CC(C)(CN)C1(O)CCCOC1` (centres unmarked) | 0.8782% |
| `CCOc1ccc(CN2CCNC(=O)CC2)cc1CO` | -14.23% |
| `COc1cccc(OCCN)c1` | -6.903% |
| `CCOC(=O)NC1CCC(NC(=O)c2ccco2)CC1` (centres unmarked) | 0.2926% |
| `CC(=O)c1cccc(OCC(=O)N2CCOCC2)c1` | -16.12% |
| `Cc1cc(C(=O)N(C)Cc2ccncc2C)[nH]n1` | -2.921% |

Repeated from the top, 6 entries:

Compound	Percent Effect
CCCNC(=O)C1CN(C(C)=O)c2ccccc2O1 (centres unmarked)	-4.423%
CC(C)(C)OC(=O)N1CC2(CCC(CN)O2)C1 (centres unmarked)	0.1168%
CCN(C)S(=O)(=O)Nc1cc(Cl)c(OC)c(Cl)c1	-6.543%
COc1cccn(CC(=O)N2CCN(C)CC2)c1=O	-9.062%
CC(C)C(C)NC(=O)CCNS(=O)(=O)c1cccnc1 (centres unmarked)	19%
COc1ccc(C(=O)Nc2cc(Br)c(=O)n(C)c2)cc1	1.144%

From ChEMBL document CHEMBL3988442, “University of Dundee, Small-Polar-MMV Screening Library” (2021).